From the supplement of paper PMC10849652
Some of the results follow.

Protein sequences, listed by entry. Tags and fused reporters are not part of them. Lines headed by an entry give the natural chain unless they say otherwise; changes in a name come on top.
UniProt P08514, whole entry, looked up: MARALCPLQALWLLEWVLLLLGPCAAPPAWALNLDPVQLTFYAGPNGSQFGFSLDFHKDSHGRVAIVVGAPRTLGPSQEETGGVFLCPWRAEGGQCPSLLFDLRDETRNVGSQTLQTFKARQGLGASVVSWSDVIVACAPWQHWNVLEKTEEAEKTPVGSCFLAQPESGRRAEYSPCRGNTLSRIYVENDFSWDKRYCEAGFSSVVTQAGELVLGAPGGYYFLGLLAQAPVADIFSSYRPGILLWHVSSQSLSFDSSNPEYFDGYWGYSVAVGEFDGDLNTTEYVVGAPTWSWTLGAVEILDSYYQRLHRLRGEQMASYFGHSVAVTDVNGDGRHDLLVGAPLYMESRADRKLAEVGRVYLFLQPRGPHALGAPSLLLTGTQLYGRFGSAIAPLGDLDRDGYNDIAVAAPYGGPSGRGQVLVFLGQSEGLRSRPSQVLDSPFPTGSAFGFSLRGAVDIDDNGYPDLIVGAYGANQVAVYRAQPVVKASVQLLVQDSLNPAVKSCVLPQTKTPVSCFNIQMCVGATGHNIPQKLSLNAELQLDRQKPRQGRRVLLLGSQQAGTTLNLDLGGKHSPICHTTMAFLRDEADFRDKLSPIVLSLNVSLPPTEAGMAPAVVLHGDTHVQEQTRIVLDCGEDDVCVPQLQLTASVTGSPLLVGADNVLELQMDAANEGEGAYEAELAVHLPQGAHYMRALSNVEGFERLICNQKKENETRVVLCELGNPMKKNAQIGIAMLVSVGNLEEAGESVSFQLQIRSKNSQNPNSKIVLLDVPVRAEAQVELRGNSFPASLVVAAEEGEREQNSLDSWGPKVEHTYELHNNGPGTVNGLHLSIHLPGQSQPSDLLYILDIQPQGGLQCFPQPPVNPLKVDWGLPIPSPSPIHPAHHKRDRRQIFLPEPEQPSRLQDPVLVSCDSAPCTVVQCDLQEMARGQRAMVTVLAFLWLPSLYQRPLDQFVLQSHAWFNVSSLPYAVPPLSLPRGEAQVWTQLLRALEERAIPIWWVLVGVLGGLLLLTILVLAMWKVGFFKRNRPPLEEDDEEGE
UniProt P29218: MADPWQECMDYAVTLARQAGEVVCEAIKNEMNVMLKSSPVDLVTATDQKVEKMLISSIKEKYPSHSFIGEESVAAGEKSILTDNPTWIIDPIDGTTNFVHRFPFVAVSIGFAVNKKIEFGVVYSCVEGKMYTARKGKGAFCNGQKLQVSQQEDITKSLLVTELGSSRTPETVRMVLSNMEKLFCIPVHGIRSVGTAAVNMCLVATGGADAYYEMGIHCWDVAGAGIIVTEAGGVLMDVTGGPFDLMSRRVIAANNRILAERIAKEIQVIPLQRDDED
UniProt P01876, whole entry, looked up: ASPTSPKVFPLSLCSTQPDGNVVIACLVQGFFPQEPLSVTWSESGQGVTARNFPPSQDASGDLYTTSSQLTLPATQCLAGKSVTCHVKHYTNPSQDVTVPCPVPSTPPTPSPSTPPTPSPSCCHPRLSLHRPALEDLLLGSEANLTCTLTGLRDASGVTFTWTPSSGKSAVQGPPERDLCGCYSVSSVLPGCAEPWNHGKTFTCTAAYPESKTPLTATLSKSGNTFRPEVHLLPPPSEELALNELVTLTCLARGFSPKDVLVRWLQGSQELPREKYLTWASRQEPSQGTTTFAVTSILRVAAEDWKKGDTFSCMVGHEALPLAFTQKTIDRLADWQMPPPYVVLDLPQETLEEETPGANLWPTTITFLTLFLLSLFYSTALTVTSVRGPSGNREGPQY
UniProt P15260: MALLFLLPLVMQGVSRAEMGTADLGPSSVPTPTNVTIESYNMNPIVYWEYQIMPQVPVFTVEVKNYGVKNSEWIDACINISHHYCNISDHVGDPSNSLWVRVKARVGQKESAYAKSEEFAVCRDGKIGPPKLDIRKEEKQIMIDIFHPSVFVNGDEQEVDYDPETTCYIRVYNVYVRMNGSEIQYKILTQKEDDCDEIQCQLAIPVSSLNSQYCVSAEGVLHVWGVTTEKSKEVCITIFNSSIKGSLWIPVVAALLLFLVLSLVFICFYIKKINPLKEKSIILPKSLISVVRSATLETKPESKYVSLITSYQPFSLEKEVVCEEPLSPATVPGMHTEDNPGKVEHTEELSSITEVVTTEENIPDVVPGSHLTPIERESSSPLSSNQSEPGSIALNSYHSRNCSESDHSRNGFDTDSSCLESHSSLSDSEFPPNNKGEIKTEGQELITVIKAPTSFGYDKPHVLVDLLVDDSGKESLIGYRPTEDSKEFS
UniProt P17181: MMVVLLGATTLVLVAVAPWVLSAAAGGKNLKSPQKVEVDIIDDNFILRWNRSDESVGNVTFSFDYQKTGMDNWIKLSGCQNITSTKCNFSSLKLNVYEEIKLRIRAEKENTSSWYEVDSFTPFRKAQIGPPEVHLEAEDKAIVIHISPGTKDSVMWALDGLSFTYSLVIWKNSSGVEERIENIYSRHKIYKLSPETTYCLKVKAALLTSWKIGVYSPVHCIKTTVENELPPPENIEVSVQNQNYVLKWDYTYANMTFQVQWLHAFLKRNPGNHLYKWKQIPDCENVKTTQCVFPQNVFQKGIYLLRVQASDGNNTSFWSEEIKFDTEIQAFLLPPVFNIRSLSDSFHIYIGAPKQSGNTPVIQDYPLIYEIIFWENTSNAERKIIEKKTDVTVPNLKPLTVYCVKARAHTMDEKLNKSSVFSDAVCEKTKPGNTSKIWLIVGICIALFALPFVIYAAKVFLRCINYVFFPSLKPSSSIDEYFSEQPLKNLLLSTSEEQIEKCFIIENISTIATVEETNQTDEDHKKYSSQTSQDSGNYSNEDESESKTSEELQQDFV
UniProt Q9NQX7: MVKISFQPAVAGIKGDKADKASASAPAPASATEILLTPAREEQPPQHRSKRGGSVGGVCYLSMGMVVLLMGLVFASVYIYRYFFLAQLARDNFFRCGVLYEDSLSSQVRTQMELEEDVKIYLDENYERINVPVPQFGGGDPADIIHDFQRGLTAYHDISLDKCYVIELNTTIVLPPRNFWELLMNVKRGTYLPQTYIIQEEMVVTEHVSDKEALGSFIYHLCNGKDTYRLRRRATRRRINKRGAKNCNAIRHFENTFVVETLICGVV
UniProt Q9NRY2: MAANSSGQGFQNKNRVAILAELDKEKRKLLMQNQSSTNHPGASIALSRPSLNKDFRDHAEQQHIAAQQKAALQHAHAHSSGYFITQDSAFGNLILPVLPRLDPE
UniProt P24593, whole entry, looked up: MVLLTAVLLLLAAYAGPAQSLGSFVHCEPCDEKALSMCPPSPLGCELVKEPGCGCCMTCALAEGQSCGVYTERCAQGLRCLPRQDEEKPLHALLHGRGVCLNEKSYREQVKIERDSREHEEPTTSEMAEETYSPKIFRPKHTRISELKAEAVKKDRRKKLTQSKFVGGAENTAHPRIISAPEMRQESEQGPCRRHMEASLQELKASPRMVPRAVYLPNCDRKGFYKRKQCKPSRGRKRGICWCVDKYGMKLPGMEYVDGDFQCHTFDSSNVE
UniProt Q9BUE6: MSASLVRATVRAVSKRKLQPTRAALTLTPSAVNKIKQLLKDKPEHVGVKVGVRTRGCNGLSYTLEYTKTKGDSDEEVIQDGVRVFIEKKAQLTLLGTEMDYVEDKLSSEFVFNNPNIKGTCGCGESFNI
UniProt Q9BT40: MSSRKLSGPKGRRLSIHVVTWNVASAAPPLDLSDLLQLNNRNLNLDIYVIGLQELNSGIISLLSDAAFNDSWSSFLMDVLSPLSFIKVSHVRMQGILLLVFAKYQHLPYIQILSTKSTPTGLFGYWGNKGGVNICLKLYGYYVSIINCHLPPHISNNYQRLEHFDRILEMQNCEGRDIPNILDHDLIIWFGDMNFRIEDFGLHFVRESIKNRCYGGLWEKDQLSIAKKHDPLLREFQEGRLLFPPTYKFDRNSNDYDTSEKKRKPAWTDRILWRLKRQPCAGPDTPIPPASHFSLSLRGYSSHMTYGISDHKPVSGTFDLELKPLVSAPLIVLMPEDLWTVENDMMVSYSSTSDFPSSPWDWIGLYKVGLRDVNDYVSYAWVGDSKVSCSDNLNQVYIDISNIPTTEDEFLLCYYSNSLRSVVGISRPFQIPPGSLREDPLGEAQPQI
UniProt Q13422: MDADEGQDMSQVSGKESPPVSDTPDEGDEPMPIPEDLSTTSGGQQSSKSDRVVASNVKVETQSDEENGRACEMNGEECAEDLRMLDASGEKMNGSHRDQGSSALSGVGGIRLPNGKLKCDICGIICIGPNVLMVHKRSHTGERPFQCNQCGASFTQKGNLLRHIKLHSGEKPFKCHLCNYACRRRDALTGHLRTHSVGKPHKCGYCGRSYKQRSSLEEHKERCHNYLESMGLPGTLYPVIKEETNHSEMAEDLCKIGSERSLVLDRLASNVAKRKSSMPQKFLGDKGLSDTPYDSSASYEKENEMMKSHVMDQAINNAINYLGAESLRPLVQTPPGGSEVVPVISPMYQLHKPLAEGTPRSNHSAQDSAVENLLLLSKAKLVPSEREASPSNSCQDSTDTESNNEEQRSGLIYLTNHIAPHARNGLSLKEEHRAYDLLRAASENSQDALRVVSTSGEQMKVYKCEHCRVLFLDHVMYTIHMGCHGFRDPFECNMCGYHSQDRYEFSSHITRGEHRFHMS
UniProt O14732: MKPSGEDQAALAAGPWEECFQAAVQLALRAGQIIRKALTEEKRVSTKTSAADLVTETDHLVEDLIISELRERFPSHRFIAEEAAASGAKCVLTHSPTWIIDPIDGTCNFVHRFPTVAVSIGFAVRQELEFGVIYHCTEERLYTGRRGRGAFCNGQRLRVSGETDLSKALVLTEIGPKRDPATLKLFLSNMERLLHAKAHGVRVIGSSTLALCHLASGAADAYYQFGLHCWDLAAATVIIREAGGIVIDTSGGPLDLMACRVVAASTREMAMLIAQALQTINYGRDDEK
UniProt Q9H2S9: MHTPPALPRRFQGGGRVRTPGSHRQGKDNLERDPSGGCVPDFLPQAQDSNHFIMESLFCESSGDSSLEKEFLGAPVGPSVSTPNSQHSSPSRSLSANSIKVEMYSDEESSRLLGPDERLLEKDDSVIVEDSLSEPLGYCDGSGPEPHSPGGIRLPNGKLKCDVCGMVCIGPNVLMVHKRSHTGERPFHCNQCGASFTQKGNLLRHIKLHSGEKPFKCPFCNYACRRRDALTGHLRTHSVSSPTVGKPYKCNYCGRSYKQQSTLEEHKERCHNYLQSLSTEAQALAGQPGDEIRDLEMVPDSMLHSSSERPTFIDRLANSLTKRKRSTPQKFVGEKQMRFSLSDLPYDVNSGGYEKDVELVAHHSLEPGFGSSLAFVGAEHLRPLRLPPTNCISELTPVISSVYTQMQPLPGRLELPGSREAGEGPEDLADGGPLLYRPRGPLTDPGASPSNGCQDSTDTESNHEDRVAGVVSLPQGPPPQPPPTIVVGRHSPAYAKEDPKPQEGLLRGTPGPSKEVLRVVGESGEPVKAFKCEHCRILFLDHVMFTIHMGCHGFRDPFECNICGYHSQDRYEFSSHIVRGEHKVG
UniProt P14316: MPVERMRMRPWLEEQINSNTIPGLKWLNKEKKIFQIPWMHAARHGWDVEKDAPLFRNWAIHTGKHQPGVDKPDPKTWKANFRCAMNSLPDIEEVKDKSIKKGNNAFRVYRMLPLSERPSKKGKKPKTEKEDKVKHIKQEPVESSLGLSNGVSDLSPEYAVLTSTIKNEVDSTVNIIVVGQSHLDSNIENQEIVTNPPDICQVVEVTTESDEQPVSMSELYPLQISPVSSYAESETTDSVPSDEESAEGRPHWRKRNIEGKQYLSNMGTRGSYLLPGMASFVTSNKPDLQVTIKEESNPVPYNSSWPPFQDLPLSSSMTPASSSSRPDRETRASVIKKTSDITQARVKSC
UniProt Q96AB3: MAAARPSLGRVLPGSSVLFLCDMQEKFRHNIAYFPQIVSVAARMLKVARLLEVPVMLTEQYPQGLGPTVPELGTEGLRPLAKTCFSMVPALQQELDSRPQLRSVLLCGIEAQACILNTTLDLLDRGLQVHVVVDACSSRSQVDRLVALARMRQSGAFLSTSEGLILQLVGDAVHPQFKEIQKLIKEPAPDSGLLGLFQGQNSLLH
UniProt Q13478: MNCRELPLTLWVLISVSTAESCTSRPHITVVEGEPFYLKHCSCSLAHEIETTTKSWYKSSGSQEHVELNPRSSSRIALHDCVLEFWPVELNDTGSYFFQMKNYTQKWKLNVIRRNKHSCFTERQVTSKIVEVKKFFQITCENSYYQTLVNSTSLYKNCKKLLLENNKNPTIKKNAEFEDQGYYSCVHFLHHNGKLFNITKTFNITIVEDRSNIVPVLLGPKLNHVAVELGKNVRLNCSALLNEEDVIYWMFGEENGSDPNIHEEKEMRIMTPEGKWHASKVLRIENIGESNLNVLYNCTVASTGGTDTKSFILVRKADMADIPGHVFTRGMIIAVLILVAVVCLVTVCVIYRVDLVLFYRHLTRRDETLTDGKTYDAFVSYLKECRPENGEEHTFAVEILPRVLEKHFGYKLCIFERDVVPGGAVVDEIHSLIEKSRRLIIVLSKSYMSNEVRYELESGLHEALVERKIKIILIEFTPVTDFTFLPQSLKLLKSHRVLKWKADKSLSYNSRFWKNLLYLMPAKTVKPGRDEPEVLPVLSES
UniProt Q8IY31, whole entry, looked up: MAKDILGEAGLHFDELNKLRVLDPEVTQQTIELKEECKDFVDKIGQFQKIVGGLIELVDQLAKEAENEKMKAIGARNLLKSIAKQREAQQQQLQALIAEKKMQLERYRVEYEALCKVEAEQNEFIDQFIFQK

The targets below were run with CCCS(=O)(=O)Nc1ccc(F)c(C(=O)c2c[nH]c3ncc(-c4ccc(Cl)cc4)cc23)c1F [vemurafenib] (assay: log2 fold change, soluble protein after heating vs DMSO (PISA); higher = thermal stabilisation; K562 cells, 10 uM, 30 min; active = over 0.2 and 3.5 SD of the protein, either way, in both replicates (recomputed)).
Procedure, shortened: (§1)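 Soluble protein was defined as the supernatant after 21,000xg for 90 min. It came from K562 cells at 2×10^6 cells/mL given 10 μM compound for 30 min, heated in aliquots for 3 min across 48°C-58°C, pooled, and extracted in PBS with 0.5% NP-40 at 4°C, and was quantified by TMTpro 16plex LC-MS/MS with equalised channel sums. Thermal stability against control samples, from duplicates, is reported as log2 fold change.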

log2 fold change, inactive:
IPO8 (UniProt O15397) 0.01
ITGA2B (UniProt P08514) -0.105
IMPA1 isoform 3 (UniProt P29218) -0.01
IGHA1 (UniProt P01876) -0.018
IFNGR1 (UniProt P15260) -0.124
IFNAR1 (UniProt P17181) -0.002
ITM2C (UniProt Q9NQX7) 0.006
IL10RB (UniProt Q08334) -0.004
INIP (UniProt Q9NRY2) 0.024
IGFBP5 (UniProt P24593) 0.04
IGFBP3 isoform 2 (UniProt P17936) 0.031
ISCA1 isoform 2 (UniProt Q9BUE6) 0.079
INPP5K (UniProt Q9BT40) -0.014
IKZF1 isoform 2 (UniProt Q13422) 0.095
IMPA2 (UniProt O14732) 0.064
IKZF4 (UniProt Q9H2S9) 0.042
IRF2 (UniProt P14316) -0.003
INTS8 (UniProt Q75QN2) 0.102
ITPRIP (UniProt Q8IWB1) 0.02
IGKC (UniProt P01834) -0.047
ISOC2 (UniProt Q96AB3) -0.084

The targets below were run with CCCS(=O)(=O)Nc1ccc(F)c(C(=O)c2c[nH]c3ncc(Cl)cc23)c1F in the same assay as above.
Procedure, shortened: as §1

log2 fold change, inactive:
IPO8 (UniProt O15397) 0.075
ITGA2B (UniProt P08514) 0.134
IL18R1 (UniProt Q13478) -0.038
IP6K1 (UniProt Q92551) -0.015
IMPA1 isoform 3 (UniProt P29218) 0.006
IGHA1 (UniProt P01876) -0.124
IRF2BP1 (UniProt Q8IU81) -0.086
IFNGR1 (UniProt P15260) -0.181
IFNAR1 (UniProt P17181) 0.001
ITM2C (UniProt Q9NQX7) -0.014
IL10RB (UniProt Q08334) 0.018
INIP (UniProt Q9NRY2) 0.12
IGFBP3 isoform 2 (UniProt P17936) 0.076
ISCA1 isoform 2 (UniProt Q9BUE6) 0.055
INAFM2 (UniProt P0DMQ5) -0.026
IGLL5 (UniProt B9A064) -0.204
IMPA2 (UniProt O14732) 0.061
IKZF4 (UniProt Q9H2S9) 0.106
IRF2 (UniProt P14316) 0.169
INTS8 (UniProt Q75QN2) 0.037
ITPRIP (UniProt Q8IWB1) 0.061
ISOC2 (UniProt Q96AB3) -0.016

The targets below were run with CCCc1cc(C)[nH]c(=O)c1CNC(=O)c1cc(-c2ccnc(N3CCN(C)CC3)c2)cc2c1cnn2C(C)C in the same assay as above.
Procedure, shortened: as §1

log2 fold change, inactive:
ILF3 (UniProt Q12906) -0.232
IL18R1 (UniProt Q13478) 0.071
IP6K1 (UniProt Q92551) 0.068
IMPA1 isoform 3 (UniProt P29218) -0.034
IGHA1 (UniProt P01876) -0.287
IRF2BP1 (UniProt Q8IU81) 0.184
IFNGR1 (UniProt P15260) -0.174
IFNAR1 (UniProt P17181) 0.102
IRAK1 (UniProt P51617) 0.035
INF2 (UniProt Q27J81) 0.041
INIP (UniProt Q9NRY2) 0.016
IGFBP5 (UniProt P24593) -0.063
ISCA1 isoform 2 (UniProt Q9BUE6) -0.032
INAFM2 (UniProt P0DMQ5) 0.067
IGLL5 (UniProt B9A064) -0.388
INPP5K (UniProt Q9BT40) 0.066
IKZF1 isoform 2 (UniProt Q13422) -0.002
IMPA2 (UniProt O14732) -0.014
IRF2 (UniProt P14316) -0.013
ITPRIP (UniProt Q8IWB1) -0.099
INTS1 (UniProt Q8N201) -0.16
ING1 (UniProt Q9UK53) -0.027
IGKC (UniProt P01834) -0.254
IFT20 isoform 2 (UniProt Q8IY31) -0.016
ISOC2 (UniProt Q96AB3) -0.011

What follows are targets tested with CCN(CC)Cc1ccc2cc(COC(=O)Nc3ccc(C(=O)NO)cc3)ccc2c1 [givinostat] in the same assay as above.
Procedure, shortened: as §1

log2 fold change, inactive:
IPO8 (UniProt O15397) 0.058
ITGA2B (UniProt P08514) 0.09
IL18R1 (UniProt Q13478) -0.072
IP6K1 (UniProt Q92551) -0.008
IMPA1 isoform 3 (UniProt P29218) -0.029
IGHA1 (UniProt P01876) 0.416
IRF2BP1 (UniProt Q8IU81) 0.032
IFNGR1 (UniProt P15260) 0.281
ITM2C (UniProt Q9NQX7) 0.09
IRAK1 (UniProt P51617) 0.217
IL10RB (UniProt Q08334) 0.088
IGFBP5 (UniProt P24593) 0.118
ISCA1 isoform 2 (UniProt Q9BUE6) -0.001
INAFM2 (UniProt P0DMQ5) 0.02
INPP5K (UniProt Q9BT40) 0.059
IKZF1 isoform 2 (UniProt Q13422) -0.135
IMPA2 (UniProt O14732) 0.039
IKZF4 (UniProt Q9H2S9) 0.009
IRF2 (UniProt P14316) -0.006
INTS8 (UniProt Q75QN2) 0.058
ITPRIP (UniProt Q8IWB1) 0.007
INTS1 (UniProt Q8N201) -0.109
IGKC (UniProt P01834) 0.073
IFT20 isoform 2 (UniProt Q8IY31) 0.058
ISOC2 (UniProt Q96AB3) -0.302
